Test results from paper doi:10.1101/2022.01.27.478011.
No constants are given. Whether binding was seen depends on the method and setting. In cells and extracts the contact can be indirect. A yes stands for co-enrichment or nearness to the bait. Other partners may have been found.

The chains behind the UniProt entries cited, without tags or fusion partners.
UniProt Q9CW03: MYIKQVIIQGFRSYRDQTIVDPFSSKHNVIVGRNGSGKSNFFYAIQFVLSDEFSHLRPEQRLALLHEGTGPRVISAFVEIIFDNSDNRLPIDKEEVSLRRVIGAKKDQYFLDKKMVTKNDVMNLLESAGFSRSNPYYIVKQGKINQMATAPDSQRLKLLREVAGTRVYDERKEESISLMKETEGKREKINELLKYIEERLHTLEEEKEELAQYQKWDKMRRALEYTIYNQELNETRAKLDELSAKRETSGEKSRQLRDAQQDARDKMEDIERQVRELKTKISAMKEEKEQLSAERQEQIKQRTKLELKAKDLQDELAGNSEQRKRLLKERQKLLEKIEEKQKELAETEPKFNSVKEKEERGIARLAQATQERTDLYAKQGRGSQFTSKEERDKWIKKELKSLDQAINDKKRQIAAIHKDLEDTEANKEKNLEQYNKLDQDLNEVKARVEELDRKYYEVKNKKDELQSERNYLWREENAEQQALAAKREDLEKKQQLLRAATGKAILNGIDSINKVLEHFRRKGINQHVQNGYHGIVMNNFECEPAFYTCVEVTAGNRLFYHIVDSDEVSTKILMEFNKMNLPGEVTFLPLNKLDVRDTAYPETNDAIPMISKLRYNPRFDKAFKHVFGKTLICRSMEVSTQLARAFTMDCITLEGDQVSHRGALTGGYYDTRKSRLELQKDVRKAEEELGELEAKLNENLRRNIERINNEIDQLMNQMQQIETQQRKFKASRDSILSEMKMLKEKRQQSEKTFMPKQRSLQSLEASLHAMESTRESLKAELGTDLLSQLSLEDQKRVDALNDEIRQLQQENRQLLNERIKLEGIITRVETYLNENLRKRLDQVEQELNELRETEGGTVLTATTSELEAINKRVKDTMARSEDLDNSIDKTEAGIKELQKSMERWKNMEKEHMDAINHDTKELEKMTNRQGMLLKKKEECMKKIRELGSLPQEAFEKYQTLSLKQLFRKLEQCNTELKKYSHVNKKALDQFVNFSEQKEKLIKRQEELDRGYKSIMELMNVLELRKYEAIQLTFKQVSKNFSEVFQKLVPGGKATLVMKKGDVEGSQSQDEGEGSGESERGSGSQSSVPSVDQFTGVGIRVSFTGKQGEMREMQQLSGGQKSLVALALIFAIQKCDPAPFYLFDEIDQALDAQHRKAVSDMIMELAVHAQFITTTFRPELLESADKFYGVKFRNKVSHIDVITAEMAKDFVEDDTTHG

Target: SETDB1 (endogenous, E14 mESC) (mouse (endogenous in E14 mESC)) (UniProt O88974)
Assay: affinity purification with mass spectrometry

binding	Molecule
binds	SMC3 (endogenous, E14 mESC) (from UniProt Q9CW03 1-1217)
binds	SMC1A (endogenous, E14 mESC) (protein, UniProt Q9CU62 1-1233) MGFLKLIEIENFKSYKGRQIIGPFQRFTAIIGPNGSGKSNLMDAISFVLGEKTSNLRVKTLRDLIHGAPVGKPAANRAFVSMVYSEEGAEDRTFARVIVGGSSEYKINNKVVQLHEYSEELEKLGILIKARNFLVFQGAVESIAMKNPKERTALFEEISRSGELAQEYDKRKKEMVKAEEDTQFNYHRKKNIAAERKEAKQEKEEADRYQRLKDEVVRAQVQLQLFKLYHNEVEIEKLNKELASKNKEIEKDKKRMDKVEDELKEKKKELGKMMREQQQIEKEIKEKDSELNQKRPQYIKAKENTSHKIKKLEAAKKSLQNAQKHYKKRKGDMDELEKEMLSVEKARQEFEERMEEESQSQGRDLTLEENQVKKYHRLKEEASKRAATLAQELEKFNRDQKADQDRLDLEERKKVETEAKIKQKLREIEENQKRIEKLEEYITTSKQSLEEQKKLEGELTEEVEMAKRRIDEINKELNQVMEQLGDARIDRQESSRQQRKAEIMESIKRLYPGSVYGRLIDLCQPTQKKYQIAVTKVLGKNMDAIIVDSEKTGRDCIQYIKEQRGEPETFLPLDYLEVKPTDEKLRELKGAKLVIDVIRYEPPHIKKALQYACGNALVCDNVEDARRIAFGGHQRHKTVALDGTLFQKSGVISGGASDLKAKARRWDEKAVDKLKEKKERLTEELKEQMKAKRKEAELRQVQSQAHGLQMRLKYSQSDLEQTKTRHLALNLQEKSKLESELANFGPRINDIKRIIQSREREMKDLKEKMNQVEDEVFEEFCREIGVRNIREFEEEKVKRQNEIAKKRLEFENQKTRLGIQLDFEKNQLKEDQDKVHMWEQTVKKDENEIEKLKKEEQRHMKIIDETMAQLQDLKNQHLAKKSEVNDKNHEMEEIRKKLGGANKEMTHLQKEVTAIETKLEQKRSDRHNLLQACKMQDIKLPLSKGTMDDISQEEGSSQGEESVSGSQRTSSIYAREALIEIDYGDLCEDLKDAQAEEEIKQEMNTLQQKLNEQQSVLQRIAAPNMKAMEKLESVRDKFQETSDEFEAARKRAKKAKQAFEQIKKERFDRFNACFESVATNIDEIYKALSRNSSAQAFLGPENPEEPYLDGINYNCVAPGKRFRPMDNLSGGEKTVAALALLFAIHSYKPAPFFVLDEIDAALDNTNIGKVANYIKEQSTCNFQAIVISLKEEFYTKAESLIGVYPEQGDCVISKVLTFDLTKYPDANPNPNEQ
